Binding data for 1 substance are collected here from PMC11840745.

The chains behind the UniProt entries cited, without tags or fusion partners.
UniProt Q9JIP4: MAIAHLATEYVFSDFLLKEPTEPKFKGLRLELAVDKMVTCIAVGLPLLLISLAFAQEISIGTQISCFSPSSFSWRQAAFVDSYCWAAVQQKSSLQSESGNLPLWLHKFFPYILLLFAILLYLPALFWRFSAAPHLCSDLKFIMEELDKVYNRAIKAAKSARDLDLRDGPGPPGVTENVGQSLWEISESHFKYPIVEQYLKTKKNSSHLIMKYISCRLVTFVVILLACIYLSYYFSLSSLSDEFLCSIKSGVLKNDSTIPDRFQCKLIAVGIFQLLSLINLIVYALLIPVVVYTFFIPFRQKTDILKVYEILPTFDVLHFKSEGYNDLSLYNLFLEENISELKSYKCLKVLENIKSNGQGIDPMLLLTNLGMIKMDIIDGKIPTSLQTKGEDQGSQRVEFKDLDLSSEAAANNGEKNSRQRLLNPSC

The target of the assay is T1, P2X7 receptor (mouse (endogenous in RAW264.7)) (UniProt Q9Z1M0).
T1 sequence: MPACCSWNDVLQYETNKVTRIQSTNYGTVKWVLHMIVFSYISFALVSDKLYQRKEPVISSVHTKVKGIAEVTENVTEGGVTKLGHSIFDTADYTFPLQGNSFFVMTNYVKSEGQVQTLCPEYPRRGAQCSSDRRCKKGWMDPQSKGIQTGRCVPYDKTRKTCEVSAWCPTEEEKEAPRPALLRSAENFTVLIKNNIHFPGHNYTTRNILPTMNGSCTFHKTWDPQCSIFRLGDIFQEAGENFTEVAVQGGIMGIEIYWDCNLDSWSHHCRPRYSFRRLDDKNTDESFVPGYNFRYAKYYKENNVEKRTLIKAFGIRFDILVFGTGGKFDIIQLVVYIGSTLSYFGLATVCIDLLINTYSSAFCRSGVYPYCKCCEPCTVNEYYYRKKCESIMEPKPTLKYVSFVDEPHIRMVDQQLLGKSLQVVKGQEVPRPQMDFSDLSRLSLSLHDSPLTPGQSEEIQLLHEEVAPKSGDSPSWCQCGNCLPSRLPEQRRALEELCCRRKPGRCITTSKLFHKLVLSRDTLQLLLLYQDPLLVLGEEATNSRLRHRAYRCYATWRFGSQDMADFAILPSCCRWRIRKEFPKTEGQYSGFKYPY
As to the kind of experiment: co-IP; RAW cells incubated with Poly (I:C), ATP or Poly (I:C) + 10Panx1 for 30 min; lysate (250 µg protein, 1% NP-40, 150 mM NaCl) precipitated with mouse anti-P2X7R antibody and protein A/G agarose; western blot for Panx1.

No constants are given. Whether binding was seen depends on the method and setting. Binding seen in cells or lysates may run through a third protein. Some binding calls cover weakened binding; strength is not graded here.

In the case of Pannexin1 (from UniProt Q9JIP4 1-426), the binding result was “binds”.
